In the assay the test system is HT29 intrarenal xenograft, nude mice, tumor weight change. The experiment in a line: NCI In Vivo Anticancer Drug Screen. Data for tumor model HT29;CX-1 Human Adenocarcinoma (MER+) (intrarenal inoculation) in NU/NU BALB/C (nude) mice. The conditions noted are these: T/C endpoint: mean tumor weight change, higher T/C = larger tumour. The procedure:
The antitumor activity of compounds was measured in mice bearing transplantable tumors. Survival or tumor size were measured and the results are expressed as the measurement made in the treated group (T) divided by the measurement made in the vehicle treated control group (C). The tumor model used in this assay is HT29;CX-1 Human Adenocarcinoma (MER+) (intrarenal inoculation) in NU/NU BALB/C (nude) mice

[1] abbreviates: dose: 1200.0 mg/kg/injection, schedule: Q04DX004 (sc), vehicle: saline with Tween-80, evaluated on day 15.

The structures appear in SMILES notation. The list does not hold the whole screen: it gathers tests that were run many times, whatever their T/C, doses with no T/C, and many T/C values between a quarter and a half above the control. Further doses and runs are listed elsewhere. T/C: endpoint of the treated group in % of that of the vehicle group. Schedule codes are those of the source, read here as Q, the interval in days (D) or hours (H), X, the number of doses. Some T/C values carry the count of animals alive at the toxicity check (mostly the fifth day); without a count, all were alive then. Some doses were run more than once; their values stand side by side, smallest first. Some entries give survivors of the animals treated and no T/C: the source files T/C as zero there, which appears to mark a toxic dose or a test without result, not a measured value. Counts of survivors are from the toxicity check (mostly the fifth day) where no day follows; animals may have died later.

As to `Cc1c(-c2ccc(-c3ccccc3F)cc2)nc2ccc(F)cc2c1C(=O)O`, the T/C was 14 [5 of 6 alive on day 11], 16, 46 % of control (dose: 6.9 mg/kg/injection, schedule: Q01DX009 (ip), vehicle: water, evaluated on day 11); 69 % of control (dose: 6.9 mg/kg/injection, schedule: Q01DX009 (ip), vehicle: water, evaluated on day 15); 5, 15 [5 of 6 alive on day 11], 110 % of control (dose: 11.5 mg/kg/injection, schedule: Q01DX009 (ip), vehicle: water, evaluated on day 11); 39 % of control (dose: 11.5 mg/kg/injection, schedule: Q01DX009 (ip), vehicle: water, evaluated on day 15); 2, 18 [4 of 6 alive on day 11], 65 % of control (dose: 19.2 mg/kg/injection, schedule: Q01DX009 (ip), vehicle: water, evaluated on day 11); 40 % of control [5 of 6 alive on day 15] (dose: 19.2 mg/kg/injection, schedule: Q01DX009 (ip), vehicle: water, evaluated on day 15). Also, the T/C (dose: 32.0 mg/kg/injection, schedule: Q01DX009 (ip), vehicle: water, evaluated on day 11) was 10 and 32 % of control; the T/C (dose: 32.0 mg/kg/injection, schedule: Q01DX009 (ip), vehicle: water, evaluated on day 15) was 3 % of control [5 of 6 alive on day 15]. Moreover, the survivor count (dose: 25.0 mg/kg/injection, schedule: Q01DX010 (ip), vehicle: water) is recorded as 0 of 6 on day 15; the survivor count (dose: 32.0 mg/kg/injection, schedule: Q01DX009 (ip), vehicle: water) is given as 2 of 6 on day 11; the survivor count (dose: 50.0 mg/kg/injection, schedule: Q01DX010 (ip), vehicle: water) is listed as 1 of 6 on day 15; the survivor count (dose: 53.3 mg/kg/injection, schedule: Q01DX009 (ip), vehicle: water) is 0 of 6 on day 11 and 1 of 6 on day 11; the survivor count (dose: 100.0 mg/kg/injection, schedule: Q01DX010 (ip), vehicle: water) is on record as 0 of 6 on day 15.

As for `COC1C(C)OC(OC2CC(C)(O)Cc3cc4c(c(O)c32)C(=O)c2c(O)cc3c(c2C4=O)OC2OC3(C)C(O)C(N(C)C)C2O)C(OC)C1(C)OC` (stereo unspecified), the survivor count runs as follows: (dose: 80.0 mg/kg/injection, schedule: Q04DX004 (sc), vehicle: Klucel (hydroxypropylcellulose) (HPC)) 1 of 6 on day 15; (dose: 160.0 mg/kg/injection, schedule: Q04DX004 (sc), vehicle: Klucel (hydroxypropylcellulose) (HPC)) 2 of 5 on day 15.

Regarding `CC1(C)OCC2OC=CC(=O)C2O1` (stereo unspecified), under “dose: 1200.0 mg/kg/injection, schedule: Q04DX004 (sc), vehicle: saline with Tween-80”, the survivor count was 0 of 6 on day 15.

Consider `O=CC(O)C(O)C(O)C(O)CO` (stereo unspecified), for which the T/C reads like this: (dose: 300.0 mg/kg/injection, schedule: Q04DX004 (ip), vehicle: saline, evaluated on day 15) 137 % of control; (dose: 1200.0 mg/kg/injection, schedule: Q04DX004 (ip), vehicle: saline, evaluated on day 15) 139 % of control.

For `CS(=O)(=O)OCCCNCCCOS(C)(=O)=O`, the survivor count is, setting by setting: (dose: 150.0 mg/kg/injection, schedule: Q04DX004 (sc), vehicle: saline) 0 of 6 on day 15; (dose: 300.0 mg/kg/injection, schedule: Q04DX004 (sc), vehicle: saline) 0 of 6 on day 15; (dose: 600.0 mg/kg/injection, schedule: Q04DX004 (sc), vehicle: saline) 0 of 6 on day 15.

Consider `CC[C@@]1(O)C(=O)OCc2c1cc1n(c2=O)Cc2cc3cc(O)ccc3nc2-1`, for which, where the note is “dose: 64.0 mg/kg/injection, schedule: Q04DX004 (sc), vehicle: saline”, the survivor count was 3 of 6 on day 15.

Take `CCOC(=O)C(CC(C)C)NC(=O)C(Cc1ccc(N(CCCl)CCCl)cc1)NC(C)=O` (stereo unspecified): the survivor count runs as follows: (dose: 400.0 mg/kg/injection, schedule: Q01DX010 (sc), vehicle: saline with Tween-80) 1 of 6 on day 11; (dose: 800.0 mg/kg/injection, schedule: Q01DX010 (sc), vehicle: saline with Tween-80) 0 of 6 on day 11.

Regarding `O=C(O)C1(NO)CCCCC1`, the T/C (dose: 800.0 mg/kg/injection, schedule: Q04DX004 (sc), vehicle: Klucel (hydroxypropylcellulose) (HPC), evaluated on day 15) is 134 % of control.

`O=C(O)[C@H](Cc1ccccc1)N1C(=O)c2ccccc2C1=O`: the T/C (dose: 600.0 mg/kg/injection, schedule: Q04DX004 (ip), vehicle: DMSO, evaluated on day 15) was 142 % of control. Moreover, where the note is “dose: 1200.0 mg/kg/injection, schedule: Q04DX004 (ip), vehicle: DMSO”, the survivor count was 0 of 6 on day 15.

For `COC(=O)[C@@]12OC[C@]34[C@H]([C@@H](O)[C@@H]1O)[C@@]1(C)CC(=O)C(O)=C(C)[C@@H]1C[C@H]3OC(=O)[C@H](OC(=O)/C=C(\C)C(C)C)[C@@H]24`, the survivor count is reported as 0 of 3 on day 11 (dose: 1.0 mg/kg/injection, schedule: Q01DX010 (sc), vehicle: saline + alcohol); 0 of 3 on day 11 (dose: 2.0 mg/kg/injection, schedule: Q01DX010 (sc), vehicle: saline + alcohol); 0 of 3 on day 11 (dose: 4.0 mg/kg/injection, schedule: Q01DX010 (sc), vehicle: saline + alcohol).

Regarding `N=C(N)c1ccc(/C=C/c2ccc(C(=N)N)cc2O)cc1`, the T/C (dose: 37.5 mg/kg/injection, schedule: Q04DX004 (sc), vehicle: water, evaluated on day 15) is 137 % of control. The survivor count (dose: 300.0 mg/kg/injection, schedule: Q04DX004 (sc), vehicle: water) is 3 of 6 on day 15.

On to `CCN1C=C/C(=C\C=C/c2cc[n+](CC)c3ccccc23)c2ccccc21`, for which the T/C reads like this: (dose: 0.25 mg/kg/injection, schedule: Q01DX010 (sc), vehicle: saline, evaluated on day 11) 142 % of control; (dose: 1.0 mg/kg/injection, schedule: Q01DX010 (sc), vehicle: saline, evaluated on day 11) 132 % of control [2 of 2 alive on day 11]. Also, the survivor count (dose: 2.0 mg/kg/injection, schedule: Q01DX010 (sc), vehicle: saline) is given as 1 of 3 on day 11.

Take `Nc1nc(=S)c2ncn(C3CC(O)C(CO)O3)c2[nH]1` (stereo unspecified): the survivor count by setting is: (dose: 3.75 mg/kg/injection, schedule: Q01DX010 (sc), vehicle: saline with Tween-80) 0 of 6 on day 11; (dose: 7.5 mg/kg/injection, schedule: Q01DX010 (sc), vehicle: saline with Tween-80) 0 of 6 on day 11; (dose: 15.0 mg/kg/injection, schedule: Q01DX010 (sc), vehicle: saline with Tween-80) 0 of 6 on day 11.

Take `FC(F)(F)c1nc2nc(Cl)c(Cl)nc2[nH]1`: the survivor count (dose: 600.0 mg/kg/injection, schedule: Q04DX004 (sc), vehicle: saline with Tween-80) is listed as 0 of 6 on day 15.

In the case of `Oc1ccc(O)cc1`, the T/C (dose: 50.0 mg/kg/injection, schedule: Q04DX004 (sc), vehicle: saline, evaluated on day 15) is 134 % of control. The survivor count reads like this: (dose: 200.0 mg/kg/injection, schedule: Q04DX004 (sc), vehicle: saline) 3 of 6 on day 15; (dose: 400.0 mg/kg/injection, schedule: Q04DX004 (sc), vehicle: saline) 0 of 6 on day 15.

For the compound `CN(C)CCC(=O)C(=Cc1ccc(O)cc1)C(=O)CCN(C)C`, the survivor count reads like this: (dose: 300.0 mg/kg/injection, schedule: Q04DX004 (ip), vehicle: saline) 0 of 6 on day 15; (dose: 600.0 mg/kg/injection, schedule: Q04DX004 (ip), vehicle: saline) 0 of 6 on day 15.

In the case of `ClCCCN1CCCCC1CCl` (stereo unspecified), the survivor count (dose: 50.0 mg/kg/injection, schedule: Q04DX004 (sc), vehicle: saline) is reported as 0 of 6 on day 15.

For `NC(=O)c1ccc[n+](Cc2c(Cl)cccc2Cl)c1`, the T/C (dose: 100.0 mg/kg/injection, schedule: Q04DX004 (sc), vehicle: saline, evaluated on day 15) was 127 % of control.

For `Oc1c(Cl)cc(Cl)cc1C=NCCSc1ccc(Cl)cc1`, the survivor count (dose: 1200.0 mg/kg/injection, schedule: Q04DX004 (ip), vehicle: Klucel (hydroxypropylcellulose) (HPC)) is listed as 0 of 6 on day 15.

Regarding `C[n+]1ccc2cc(N)c3c4ccccc4sc3c2c1`, the survivor count reads like this: (dose: 50.0 mg/kg/injection, schedule: Q04DX004 (sc), vehicle: saline with Tween-80) 0 of 6 on day 15; (dose: 100.0 mg/kg/injection, schedule: Q04DX004 (sc), vehicle: saline with Tween-80) 0 of 6 on day 15.

On to `Nc1nc(-c2ccccc2)c(Br)c(=O)[nH]1`, for which the T/C under setting [1] was 129 % of control.

As to `C[C@]12CC[C@H](O)CC1=CC[C@@H]1[C@@H]2CC[C@]2(C)C(=O)CC[C@@H]12`, under setting [1], the T/C was 148 % of control.

These data come from PubChem BioAssay AID208 (DTP/NCI, 2004).
